Measured values taken from the supplement of paper PMC10849652.
The other results are listed elsewhere or left out.

The chains behind the UniProt entries cited, without tags or fusion partners. Where a name states a change or a piece, a line headed by the entry shows the natural chain unless it says otherwise.
UniProt P02794, whole entry, looked up: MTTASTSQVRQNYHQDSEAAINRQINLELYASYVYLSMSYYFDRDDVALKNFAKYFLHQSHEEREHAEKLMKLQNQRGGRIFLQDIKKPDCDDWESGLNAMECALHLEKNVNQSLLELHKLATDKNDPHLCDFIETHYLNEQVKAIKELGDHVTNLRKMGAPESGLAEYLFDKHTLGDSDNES
UniProt Q92820: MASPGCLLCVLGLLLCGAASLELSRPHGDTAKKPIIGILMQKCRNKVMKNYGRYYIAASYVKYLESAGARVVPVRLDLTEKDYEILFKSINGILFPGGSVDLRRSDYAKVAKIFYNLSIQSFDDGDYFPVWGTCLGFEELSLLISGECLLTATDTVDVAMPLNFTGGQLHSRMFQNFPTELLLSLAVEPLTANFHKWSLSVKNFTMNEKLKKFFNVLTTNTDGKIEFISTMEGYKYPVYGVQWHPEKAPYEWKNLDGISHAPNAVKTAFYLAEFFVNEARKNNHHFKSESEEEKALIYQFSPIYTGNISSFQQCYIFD
UniProt Q9H3C7, whole entry, looked up: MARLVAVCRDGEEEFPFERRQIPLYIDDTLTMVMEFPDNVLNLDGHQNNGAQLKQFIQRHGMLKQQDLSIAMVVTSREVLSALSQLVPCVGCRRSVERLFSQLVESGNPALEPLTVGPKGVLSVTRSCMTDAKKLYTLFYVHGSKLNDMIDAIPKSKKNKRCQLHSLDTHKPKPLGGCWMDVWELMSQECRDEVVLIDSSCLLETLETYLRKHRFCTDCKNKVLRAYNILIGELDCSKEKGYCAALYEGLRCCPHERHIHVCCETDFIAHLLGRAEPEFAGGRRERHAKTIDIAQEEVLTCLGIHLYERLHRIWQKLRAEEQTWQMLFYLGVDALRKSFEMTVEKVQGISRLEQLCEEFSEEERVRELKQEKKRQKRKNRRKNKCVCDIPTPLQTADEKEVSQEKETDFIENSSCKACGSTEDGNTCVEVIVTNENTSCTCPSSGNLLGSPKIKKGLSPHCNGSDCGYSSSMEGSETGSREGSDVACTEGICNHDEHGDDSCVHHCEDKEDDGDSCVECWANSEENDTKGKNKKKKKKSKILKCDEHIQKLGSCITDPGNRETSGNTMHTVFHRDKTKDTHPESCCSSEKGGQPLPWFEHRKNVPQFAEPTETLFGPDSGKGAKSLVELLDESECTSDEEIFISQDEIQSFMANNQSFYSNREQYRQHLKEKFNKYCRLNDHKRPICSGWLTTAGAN
UniProt O15117, whole entry, looked up: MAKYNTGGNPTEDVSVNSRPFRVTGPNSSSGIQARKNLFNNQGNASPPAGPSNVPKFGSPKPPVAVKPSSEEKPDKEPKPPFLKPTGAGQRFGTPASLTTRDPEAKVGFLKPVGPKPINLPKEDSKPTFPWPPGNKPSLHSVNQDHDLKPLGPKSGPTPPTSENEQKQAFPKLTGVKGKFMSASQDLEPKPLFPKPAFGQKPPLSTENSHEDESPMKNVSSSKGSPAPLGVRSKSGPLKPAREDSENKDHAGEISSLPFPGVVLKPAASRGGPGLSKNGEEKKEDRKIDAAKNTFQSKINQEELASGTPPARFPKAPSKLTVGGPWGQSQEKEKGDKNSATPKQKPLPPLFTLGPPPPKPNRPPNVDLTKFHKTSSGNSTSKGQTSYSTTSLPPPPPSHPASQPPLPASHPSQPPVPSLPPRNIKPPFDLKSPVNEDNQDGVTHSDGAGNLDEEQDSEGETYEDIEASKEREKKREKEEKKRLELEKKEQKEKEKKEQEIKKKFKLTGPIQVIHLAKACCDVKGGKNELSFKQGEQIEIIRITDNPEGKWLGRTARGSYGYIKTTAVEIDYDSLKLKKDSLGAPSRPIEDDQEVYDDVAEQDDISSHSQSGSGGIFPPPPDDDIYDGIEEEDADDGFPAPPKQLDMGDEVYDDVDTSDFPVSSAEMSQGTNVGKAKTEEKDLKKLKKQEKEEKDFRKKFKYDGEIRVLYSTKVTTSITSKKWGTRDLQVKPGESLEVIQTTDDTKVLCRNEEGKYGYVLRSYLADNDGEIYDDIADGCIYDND
UniProt Q7Z7M9: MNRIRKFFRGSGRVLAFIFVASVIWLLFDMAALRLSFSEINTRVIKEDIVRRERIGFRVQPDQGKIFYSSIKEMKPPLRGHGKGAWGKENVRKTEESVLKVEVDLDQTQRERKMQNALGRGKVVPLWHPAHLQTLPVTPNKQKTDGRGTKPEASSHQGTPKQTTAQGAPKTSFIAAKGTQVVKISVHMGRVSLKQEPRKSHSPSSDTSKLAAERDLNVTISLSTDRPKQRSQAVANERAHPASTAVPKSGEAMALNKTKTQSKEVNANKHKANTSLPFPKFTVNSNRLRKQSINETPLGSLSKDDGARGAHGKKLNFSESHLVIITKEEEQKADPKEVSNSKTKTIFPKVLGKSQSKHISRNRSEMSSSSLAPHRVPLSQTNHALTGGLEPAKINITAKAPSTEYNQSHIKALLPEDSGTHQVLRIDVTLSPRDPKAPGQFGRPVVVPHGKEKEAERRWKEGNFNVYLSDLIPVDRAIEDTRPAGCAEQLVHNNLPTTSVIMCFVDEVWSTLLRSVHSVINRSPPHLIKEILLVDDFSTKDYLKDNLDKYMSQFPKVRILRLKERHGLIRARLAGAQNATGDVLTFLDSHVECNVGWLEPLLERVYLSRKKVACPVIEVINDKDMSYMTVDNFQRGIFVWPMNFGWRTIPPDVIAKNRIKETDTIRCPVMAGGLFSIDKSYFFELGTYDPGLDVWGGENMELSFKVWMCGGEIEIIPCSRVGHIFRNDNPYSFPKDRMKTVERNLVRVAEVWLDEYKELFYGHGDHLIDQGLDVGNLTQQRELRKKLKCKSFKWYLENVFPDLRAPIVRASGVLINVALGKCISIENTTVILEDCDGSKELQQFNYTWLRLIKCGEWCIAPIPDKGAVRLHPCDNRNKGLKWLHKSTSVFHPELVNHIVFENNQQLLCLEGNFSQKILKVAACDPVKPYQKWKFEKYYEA
UniProt Q96C23: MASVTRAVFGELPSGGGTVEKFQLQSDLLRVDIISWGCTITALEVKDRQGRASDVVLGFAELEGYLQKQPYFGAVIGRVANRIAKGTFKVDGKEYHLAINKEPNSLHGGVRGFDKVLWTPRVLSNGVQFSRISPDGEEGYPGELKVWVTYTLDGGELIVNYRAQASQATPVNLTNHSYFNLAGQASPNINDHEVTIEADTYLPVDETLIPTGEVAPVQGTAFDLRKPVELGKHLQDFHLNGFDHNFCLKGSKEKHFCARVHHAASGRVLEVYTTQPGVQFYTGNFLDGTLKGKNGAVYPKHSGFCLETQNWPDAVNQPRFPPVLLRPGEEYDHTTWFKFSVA
UniProt P41250: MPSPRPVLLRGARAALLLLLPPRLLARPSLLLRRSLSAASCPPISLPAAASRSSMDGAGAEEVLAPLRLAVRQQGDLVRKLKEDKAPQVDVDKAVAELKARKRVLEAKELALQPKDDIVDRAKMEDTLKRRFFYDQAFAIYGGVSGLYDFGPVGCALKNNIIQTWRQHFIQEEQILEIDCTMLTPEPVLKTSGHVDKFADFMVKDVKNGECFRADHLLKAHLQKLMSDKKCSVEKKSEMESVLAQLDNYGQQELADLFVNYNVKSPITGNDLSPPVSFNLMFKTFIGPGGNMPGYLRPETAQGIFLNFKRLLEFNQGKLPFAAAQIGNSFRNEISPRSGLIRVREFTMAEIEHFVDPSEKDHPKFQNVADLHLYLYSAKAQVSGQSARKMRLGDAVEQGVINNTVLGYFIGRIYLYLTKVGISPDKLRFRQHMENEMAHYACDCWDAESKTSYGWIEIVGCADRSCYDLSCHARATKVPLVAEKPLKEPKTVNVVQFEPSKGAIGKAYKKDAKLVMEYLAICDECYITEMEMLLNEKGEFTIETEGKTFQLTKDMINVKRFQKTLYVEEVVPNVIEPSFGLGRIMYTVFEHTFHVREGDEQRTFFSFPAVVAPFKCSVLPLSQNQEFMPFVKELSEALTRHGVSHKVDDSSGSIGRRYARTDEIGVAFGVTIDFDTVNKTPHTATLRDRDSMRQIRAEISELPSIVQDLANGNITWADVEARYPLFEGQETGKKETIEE
UniProt Q9BTY2: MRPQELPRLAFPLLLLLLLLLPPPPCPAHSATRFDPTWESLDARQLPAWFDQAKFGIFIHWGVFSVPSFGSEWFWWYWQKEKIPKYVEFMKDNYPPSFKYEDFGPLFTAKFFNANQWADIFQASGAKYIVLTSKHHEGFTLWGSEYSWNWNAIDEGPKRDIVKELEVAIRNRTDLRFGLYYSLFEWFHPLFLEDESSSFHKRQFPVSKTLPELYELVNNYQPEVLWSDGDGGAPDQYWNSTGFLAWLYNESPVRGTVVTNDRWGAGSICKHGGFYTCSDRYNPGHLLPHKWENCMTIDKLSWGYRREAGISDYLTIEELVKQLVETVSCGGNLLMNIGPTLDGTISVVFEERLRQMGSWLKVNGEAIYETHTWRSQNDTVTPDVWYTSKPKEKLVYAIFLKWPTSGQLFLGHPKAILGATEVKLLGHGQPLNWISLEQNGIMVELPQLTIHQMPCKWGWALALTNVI
UniProt Q14376: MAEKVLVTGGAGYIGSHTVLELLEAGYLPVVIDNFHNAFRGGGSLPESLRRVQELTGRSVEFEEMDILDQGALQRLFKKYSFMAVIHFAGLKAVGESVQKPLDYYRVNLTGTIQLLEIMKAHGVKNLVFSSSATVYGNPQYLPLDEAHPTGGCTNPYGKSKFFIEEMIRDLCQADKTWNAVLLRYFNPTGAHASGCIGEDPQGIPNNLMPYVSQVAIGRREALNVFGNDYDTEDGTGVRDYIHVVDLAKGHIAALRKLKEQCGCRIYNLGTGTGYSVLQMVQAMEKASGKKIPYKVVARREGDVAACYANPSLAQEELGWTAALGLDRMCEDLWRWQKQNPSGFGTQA
UniProt P55789: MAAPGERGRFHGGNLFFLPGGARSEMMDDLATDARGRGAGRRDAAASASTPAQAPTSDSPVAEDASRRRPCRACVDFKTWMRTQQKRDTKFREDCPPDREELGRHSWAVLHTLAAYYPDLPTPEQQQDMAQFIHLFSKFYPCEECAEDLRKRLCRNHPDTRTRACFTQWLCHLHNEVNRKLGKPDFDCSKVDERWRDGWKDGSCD
UniProt P30047: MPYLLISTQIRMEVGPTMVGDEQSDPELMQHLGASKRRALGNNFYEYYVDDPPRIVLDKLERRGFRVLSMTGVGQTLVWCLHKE
UniProt Q9NZ52: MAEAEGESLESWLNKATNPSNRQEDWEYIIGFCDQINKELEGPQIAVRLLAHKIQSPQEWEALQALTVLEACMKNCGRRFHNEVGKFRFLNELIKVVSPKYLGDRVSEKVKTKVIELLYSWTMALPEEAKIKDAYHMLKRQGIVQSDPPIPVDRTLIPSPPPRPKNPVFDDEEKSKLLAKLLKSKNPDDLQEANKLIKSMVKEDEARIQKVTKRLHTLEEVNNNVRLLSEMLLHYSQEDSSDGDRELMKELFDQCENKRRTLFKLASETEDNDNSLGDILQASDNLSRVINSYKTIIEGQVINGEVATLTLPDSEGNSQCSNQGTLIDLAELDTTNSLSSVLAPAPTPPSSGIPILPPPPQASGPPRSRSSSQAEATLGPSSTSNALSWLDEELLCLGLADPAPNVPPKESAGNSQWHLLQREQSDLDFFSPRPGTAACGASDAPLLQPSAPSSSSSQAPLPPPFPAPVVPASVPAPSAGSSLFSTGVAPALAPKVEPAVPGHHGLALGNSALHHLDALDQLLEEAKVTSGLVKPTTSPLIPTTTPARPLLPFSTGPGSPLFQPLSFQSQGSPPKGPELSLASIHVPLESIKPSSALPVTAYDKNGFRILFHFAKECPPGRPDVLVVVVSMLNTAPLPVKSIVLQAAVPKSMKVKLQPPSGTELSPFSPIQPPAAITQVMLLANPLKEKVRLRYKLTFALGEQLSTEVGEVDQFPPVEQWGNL
UniProt Q16595: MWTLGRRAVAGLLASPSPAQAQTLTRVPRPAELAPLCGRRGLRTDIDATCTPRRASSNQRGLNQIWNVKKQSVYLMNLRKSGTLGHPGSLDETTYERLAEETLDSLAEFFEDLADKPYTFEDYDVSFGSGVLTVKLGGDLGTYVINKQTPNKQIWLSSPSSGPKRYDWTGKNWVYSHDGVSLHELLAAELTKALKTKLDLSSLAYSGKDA
UniProt O95749: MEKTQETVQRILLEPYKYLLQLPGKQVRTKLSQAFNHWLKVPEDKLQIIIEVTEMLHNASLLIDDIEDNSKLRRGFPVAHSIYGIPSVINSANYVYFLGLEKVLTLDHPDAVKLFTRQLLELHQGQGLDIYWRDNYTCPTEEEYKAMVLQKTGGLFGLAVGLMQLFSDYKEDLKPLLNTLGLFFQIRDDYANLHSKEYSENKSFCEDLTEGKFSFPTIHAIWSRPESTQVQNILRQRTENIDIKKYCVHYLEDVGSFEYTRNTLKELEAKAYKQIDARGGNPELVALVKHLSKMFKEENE

Tests used:
Test in all cases: log2 fold change, soluble protein after heating vs DMSO (PISA); higher = thermal stabilisation; K562 cells, 10 uM, 30 min; active = over 0.2 and 3.5 SD of the protein, either way, in both replicates (recomputed)
[1] = compound: NC(=O)Nc1cc(-c2cccc(F)c2)sc1C(=O)N[C@H]1CCCNC1
Procedure, shortened: (§1)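 For each measurement, 10 μM compound was applied for 30 min to K562 cells at 2×10^6 cells/mL. Aliquots were heated for 3 min across 48°C-58°C, pooled, and extracted in PBS with 0.5% NP-40 at 4°C; the supernatant after 21,000xg for 90 min was soluble protein. This was quantified by TMTpro 16plex LC-MS/MS with channel sums equalised, and thermal stability was reported relative to control samples from duplicates, on a log2 fold-change scale.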

[2] = compound: NC(=O)c1cnc(N[C@@H]2CCCC[C@@H]2N)nc1Nc1cccc(-n2nccn2)c1
Procedure, shortened: as §1

[3] = compound: NC1(c2ccc(-c3nc4ccn5c(=O)[nH]nc5c4cc3-c3ccccc3)cc2)CCC1
Procedure, shortened: as §1

[4] = compound: NCC(=O)Nc1ccc(-n2nc(C(F)(F)F)cc2-c2ccc3c(ccc4ccccc43)c2)cc1
Procedure, shortened: as §1

entinostat = compound: Nc1ccccc1NC(=O)c1ccc(CNC(=O)OCc2cccnc2)cc1 [entinostat]
Procedure, shortened: as §1

vorinostat = compound: O=C(CCCCCCC(=O)Nc1ccccc1)NO [vorinostat]
Procedure, shortened: as §1

citarinostat = compound: O=C(CCCCCCNC(=O)c1cnc(N(c2ccccc2)c2ccccc2Cl)nc1)NO [citarinostat]
Procedure, shortened: as §1

silmitasertib = compound: O=C(O)c1ccc2c(c1)nc(Nc1cccc(Cl)c1)c1ccncc12 [silmitasertib]
Procedure, shortened: as §1

[5] = compound: O=C1NC(=O)C(c2cnc3ccccn23)=C1c1cn2c3c(cc(F)cc13)CN(C(=O)N1CCCCC1)CC2
Procedure, shortened: as §1

[6] = compound: c1cc(OCCN2CCCCC2)cc(-c2n[nH]c3ccc(-c4nnc[nH]4)cc23)c1
Procedure, shortened: as §1

entospletinib = compound: c1cn2cc(-c3ccc4cn[nH]c4c3)nc(Nc3ccc(N4CCOCC4)cc3)c2n1 [entospletinib]
Procedure, shortened: as §1

Measured: log2 fold change

GADD45GIP1 (UniProt Q8TAE8)
inactive: [1] -0.007 | [2] 0.031 | [3] 0.051 | [4] 0.077 | entinostat 0.054 | vorinostat -0.002 | citarinostat -0.025 | silmitasertib -0.012 | [5] 0.042 | [6] -0.063 | entospletinib 0.068

GAPDH (UniProt P04406)
inactive: [1] 0.047 | [2] 0.096 | [3] 0.076 | [4] 0.106 | entinostat -0.009 | vorinostat -0.002 | citarinostat 0.016 | silmitasertib -0.062 | [5] 0.001 | [6] 0.001 | entospletinib 0.024

FSCN1 (UniProt Q16658)
inactive: [1] 0.054 | [2] 0.034 | [3] -0.049 | [4] 0.046 | entinostat 0.018 | vorinostat -0.01 | citarinostat 0.058 | silmitasertib -0.033 | [5] -0.029 | [6] 0.013 | entospletinib 0.008

FTH1 (UniProt P02794)
inactive: [1] -0.009 | [2] -0.032 | [3] -0.031 | [4] 0.063 | entinostat 0.039 | vorinostat 0.011 | citarinostat 0.066 | silmitasertib 0.049 | [5] 0 | [6] -0.036 | entospletinib 0.045

GGH (UniProt Q92820)
inactive: [1] -0.006 | [2] 0.002 | [3] -0.02 | [4] 0.038 | entinostat -0.011 | vorinostat 0.008 | citarinostat 0.029 | silmitasertib -0.008 | [5] -0.008 | [6] 0.047 | entospletinib 0.028

GGNBP2 (UniProt Q9H3C7)
inactive: [1] 0.03 | [2] 0.003 | [3] -0.073 | [4] 0.084 | entinostat 0.061 | vorinostat 0.011 | citarinostat 0.155 | silmitasertib 0.128 | [5] 0.04 | [6] -0.097 | entospletinib -0.007

FRG1 (UniProt Q14331)
inactive: [1] 0 | [2] 0.056 | [3] 0.065 | [4] 0.023 | entinostat 0.038 | vorinostat -0.007 | citarinostat -0.087 | silmitasertib 0.07 | [5] 0.061 | [6] -0.197 | entospletinib 0.083

GAA (UniProt P10253)
inactive: [1] 0.216 | [2] -0.234 | [3] 0.13 | [4] -0.076 | entinostat 0.116 | vorinostat 0.017 | citarinostat -0.06 | silmitasertib 0.104 | [5] -0.048 | [6] -0.072 | entospletinib -0.029

FUBP3 (UniProt Q96I24)
inactive: [1] -0.023 | [2] 0.024 | [3] -0.048 | [4] -0.011 | entinostat 0.003 | vorinostat 0.062 | citarinostat -0.005 | silmitasertib 0.045 | [5] 0.186 | [6] 0.006

GALT (UniProt P07902)
inactive: [1] -0.011 | [2] 0.159 | [3] -0.127 | [4] 0.095 | entinostat 0.032 | vorinostat 0.067 | citarinostat -0.144 | silmitasertib -0.083 | [5] -0.193 | [6] 0.564 | entospletinib -0.049

Pulled one by one from the list above (2):
FUBP3 (UniProt Q96I24)
inactive: [1] -0.023 | [2] 0.024 | [3] -0.048 | [4] -0.011 | entinostat 0.003 | vorinostat 0.062 | citarinostat -0.005 | silmitasertib 0.045 | [5] 0.186 | [6] 0.006

GAA (UniProt P10253)
inactive: [1] 0.216 | [2] -0.234 | [3] 0.13 | [4] -0.076 | entinostat 0.116 | vorinostat 0.017 | citarinostat -0.06 | silmitasertib 0.104 | [5] -0.048 | [6] -0.072 | entospletinib -0.029

Additional records

GBA (UniProt P04062)
inactive: [1] 0.061 | [2] -0.043 | [3] -0.105 | [4] 0.064 | entinostat -0.016 | vorinostat -0.028 | citarinostat 0.115 | silmitasertib 0.026 | [5] -0.034 | [6] 0.308 | entospletinib 0.01

FYB1 isoform 3 (UniProt O15117)
inactive: [1] -0.045 | [2] 0.007 | [3] 0.017 | [4] 0.02 | entinostat 0.025 | vorinostat -0.02 | citarinostat 0.093 | silmitasertib -0.097 | [5] -0.037 | [6] -0.002

FOSL1 (UniProt P15407)
inactive: [1] 0.021 | [2] -0.114 | [3] 0.017 | [4] -0.074 | entinostat -0.139 | vorinostat -0.153 | citarinostat -0.142 | silmitasertib 0.007 | [5] 0.006 | [6] -0.064 | entospletinib -0.064

GALNT5 (UniProt Q7Z7M9)
inactive: [1] -0.056 | [2] 0.008 | [3] -0.009 | [4] -0.019 | entinostat -0.014 | vorinostat -0.071 | citarinostat 0.009 | silmitasertib -0.003 | [5] -0.016 | [6] -0.018 | entospletinib 0.002

FTSJ1 (UniProt Q9UET6)
inactive: [1] 0.016 | [2] -0.042 | [3] -0.099 | [4] 0.046 | entinostat 0.013 | vorinostat 0.194 | citarinostat 0.017 | silmitasertib -0.035 | [5] 0.008 | [6] 0.047 | entospletinib 0.12

FRYL (UniProt O94915)
inactive: [1] -0.044 | [2] 0.007 | [3] -0.1 | [4] -0.009 | entinostat 0.013 | vorinostat 0.014 | citarinostat 0.019 | silmitasertib 0.011 | [5] 0.03 | [6] -0.086 | entospletinib 0.036

GALM (UniProt Q96C23)
inactive: [1] 0.012 | [2] -0.005 | [3] 0.075 | [4] 0.005 | entinostat -0.005 | vorinostat -0.009 | citarinostat 0.039 | silmitasertib -0.036 | [5] -0.056 | [6] 0 | entospletinib -0.044

GATAD2A isoform 3 (UniProt Q86YP4)
inactive: [1] -0.009 | [2] -0.282 | [3] -0.05 | [4] 0.043 | entinostat -0.002 | vorinostat -0.042 | citarinostat -0.048 | silmitasertib 0.12 | [5] -0.045 | [6] -0.002 | entospletinib -0.015

GARS1 (UniProt P41250)
inactive: [1] 0.003 | [2] -0.014 | [3] -0.014 | [4] -0.007 | entinostat -0.024 | vorinostat -0.03 | citarinostat 0.016 | silmitasertib -0.03 | [5] -0.024 | [6] -0.025 | entospletinib -0.007

FUCA2 (UniProt Q9BTY2)
active: [3] -0.499 | [6] -0.551
inactive: [1] 0.004 | [2] -0.037 | [4] 0.013 | entinostat -0.03 | vorinostat -0.033 | citarinostat 0.042 | silmitasertib 0.032 | [5] 0.032

FOXK1 (UniProt P85037)
active: [5] -1.33
inactive: [1] 0.497 | [2] 0.201 | [3] 0.38 | [4] 0.096 | entinostat 0 | vorinostat -0.15 | citarinostat 0.023 | silmitasertib 0.512 | [6] -0.031

GARS1 (UniProt H7C443)
inactive: [1] -0.347 | [2] -0.089 | [3] 0.008 | [4] -0.105 | entinostat -0.211 | vorinostat -0.229 | citarinostat -0.16 | silmitasertib -0.02 | [5] -0.274 | [6] -0.037 | entospletinib 0.096

GALE (UniProt Q14376)
inactive: [1] -0.058 | [2] -0.065 | [3] -0.075 | [4] -0.064 | entinostat -0.026 | vorinostat 0 | citarinostat 0.056 | silmitasertib -0.069 | [5] -0.148 | [6] 0.018 | entospletinib -0.016

GFER (UniProt P55789)
inactive: [1] -0.004 | [2] 0.057 | [3] 0.001 | [4] -0.03 | entinostat -0.027 | vorinostat 0.02 | citarinostat 0.025 | silmitasertib 0.019 | [5] -0.155 | [6] -0.075 | entospletinib -0.063

GCHFR (UniProt P30047)
inactive: [1] 0.107 | [2] -0.265 | [3] -0.007 | [4] -0.029 | entinostat 0.014 | vorinostat -0.086 | citarinostat 0.156 | silmitasertib -0.03 | [5] -0.023 | [6] 0.016 | entospletinib -0.137

GGA3 (UniProt Q9NZ52)
inactive: [1] -0.103 | [2] -0.025 | [3] 0.013 | [4] -0.152 | entinostat -0.016 | vorinostat 0.014 | citarinostat 0.007 | silmitasertib 0.058 | [5] 0.002 | [6] -0.105 | entospletinib -0.015

FXN (UniProt Q16595)
inactive: [1] 0.042 | [2] 0.014 | [3] 0.024 | [4] 0 | entinostat 0.046 | vorinostat -0.032 | citarinostat 0.056 | silmitasertib -0.043 | [5] -0.015 | [6] -0.045 | entospletinib 0.066

GGPS1 (UniProt O95749)
inactive: [1] -0.02 | [2] -0.024 | [3] -0.003 | [4] -0.033 | entinostat -0.034 | vorinostat -0.071 | citarinostat -0.016 | silmitasertib 0.013 | [5] -0.043 | [6] -0.028 | entospletinib -0.071
